Test system: IL-6
Conditions: all IC treated groups and high dose PO group (45 mg/kg)

C[C@@H]1CCN(C(=O)CC#N)C[C@@H]1N(C)c1ncnc2[nH]ccc12.O=C(O)CC(O)(CC(=O)O)C(=O)O [tofacitinib citrate]
inhibition of IL-6 expression in colon tissue: sustained through 24 h

From patent publication US20230033021A1, “TREATMENT OF A DISEASE OF THE GASTROINTESTINAL TRACT WITH AN INTEGRIN INHIBITOR” (Progenity, Inc., priority 2018, published 2023)
